Source: the supplement of paper PMC11006884
This list holds what a sample rich in targets with a hit left over. This is a noisy data set. The entries are a selection whose mix differs from that of the whole data set.

Protein sequences, listed by entry. Tags and fused reporters are not part of them. Lines headed by an entry give the natural chain unless they say otherwise; changes in a name come on top.
UniProt A2RUB1: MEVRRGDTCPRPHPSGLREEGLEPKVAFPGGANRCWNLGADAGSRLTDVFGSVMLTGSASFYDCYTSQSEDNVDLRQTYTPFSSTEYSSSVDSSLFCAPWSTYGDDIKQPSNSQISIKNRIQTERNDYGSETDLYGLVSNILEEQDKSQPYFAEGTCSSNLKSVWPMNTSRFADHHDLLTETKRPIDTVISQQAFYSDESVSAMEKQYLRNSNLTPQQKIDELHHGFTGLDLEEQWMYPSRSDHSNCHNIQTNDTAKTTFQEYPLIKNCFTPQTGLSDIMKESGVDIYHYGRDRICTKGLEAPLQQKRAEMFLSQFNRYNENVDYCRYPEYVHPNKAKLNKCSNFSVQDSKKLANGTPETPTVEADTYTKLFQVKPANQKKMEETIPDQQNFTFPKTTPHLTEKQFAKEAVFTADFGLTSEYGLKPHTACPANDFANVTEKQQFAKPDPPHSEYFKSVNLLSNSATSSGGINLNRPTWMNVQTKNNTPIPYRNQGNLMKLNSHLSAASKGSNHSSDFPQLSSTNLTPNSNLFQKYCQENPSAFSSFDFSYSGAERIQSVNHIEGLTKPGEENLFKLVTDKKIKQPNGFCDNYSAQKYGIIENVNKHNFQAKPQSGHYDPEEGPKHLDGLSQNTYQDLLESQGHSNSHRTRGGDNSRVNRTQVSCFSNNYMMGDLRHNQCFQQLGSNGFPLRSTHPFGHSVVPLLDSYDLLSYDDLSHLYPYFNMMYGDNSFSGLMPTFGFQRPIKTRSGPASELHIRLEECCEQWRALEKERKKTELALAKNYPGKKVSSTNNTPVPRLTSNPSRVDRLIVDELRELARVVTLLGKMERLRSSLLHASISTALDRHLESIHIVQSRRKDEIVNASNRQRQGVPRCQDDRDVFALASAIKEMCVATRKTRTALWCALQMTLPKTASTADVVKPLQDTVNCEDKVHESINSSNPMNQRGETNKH
UniProt A0JNW5: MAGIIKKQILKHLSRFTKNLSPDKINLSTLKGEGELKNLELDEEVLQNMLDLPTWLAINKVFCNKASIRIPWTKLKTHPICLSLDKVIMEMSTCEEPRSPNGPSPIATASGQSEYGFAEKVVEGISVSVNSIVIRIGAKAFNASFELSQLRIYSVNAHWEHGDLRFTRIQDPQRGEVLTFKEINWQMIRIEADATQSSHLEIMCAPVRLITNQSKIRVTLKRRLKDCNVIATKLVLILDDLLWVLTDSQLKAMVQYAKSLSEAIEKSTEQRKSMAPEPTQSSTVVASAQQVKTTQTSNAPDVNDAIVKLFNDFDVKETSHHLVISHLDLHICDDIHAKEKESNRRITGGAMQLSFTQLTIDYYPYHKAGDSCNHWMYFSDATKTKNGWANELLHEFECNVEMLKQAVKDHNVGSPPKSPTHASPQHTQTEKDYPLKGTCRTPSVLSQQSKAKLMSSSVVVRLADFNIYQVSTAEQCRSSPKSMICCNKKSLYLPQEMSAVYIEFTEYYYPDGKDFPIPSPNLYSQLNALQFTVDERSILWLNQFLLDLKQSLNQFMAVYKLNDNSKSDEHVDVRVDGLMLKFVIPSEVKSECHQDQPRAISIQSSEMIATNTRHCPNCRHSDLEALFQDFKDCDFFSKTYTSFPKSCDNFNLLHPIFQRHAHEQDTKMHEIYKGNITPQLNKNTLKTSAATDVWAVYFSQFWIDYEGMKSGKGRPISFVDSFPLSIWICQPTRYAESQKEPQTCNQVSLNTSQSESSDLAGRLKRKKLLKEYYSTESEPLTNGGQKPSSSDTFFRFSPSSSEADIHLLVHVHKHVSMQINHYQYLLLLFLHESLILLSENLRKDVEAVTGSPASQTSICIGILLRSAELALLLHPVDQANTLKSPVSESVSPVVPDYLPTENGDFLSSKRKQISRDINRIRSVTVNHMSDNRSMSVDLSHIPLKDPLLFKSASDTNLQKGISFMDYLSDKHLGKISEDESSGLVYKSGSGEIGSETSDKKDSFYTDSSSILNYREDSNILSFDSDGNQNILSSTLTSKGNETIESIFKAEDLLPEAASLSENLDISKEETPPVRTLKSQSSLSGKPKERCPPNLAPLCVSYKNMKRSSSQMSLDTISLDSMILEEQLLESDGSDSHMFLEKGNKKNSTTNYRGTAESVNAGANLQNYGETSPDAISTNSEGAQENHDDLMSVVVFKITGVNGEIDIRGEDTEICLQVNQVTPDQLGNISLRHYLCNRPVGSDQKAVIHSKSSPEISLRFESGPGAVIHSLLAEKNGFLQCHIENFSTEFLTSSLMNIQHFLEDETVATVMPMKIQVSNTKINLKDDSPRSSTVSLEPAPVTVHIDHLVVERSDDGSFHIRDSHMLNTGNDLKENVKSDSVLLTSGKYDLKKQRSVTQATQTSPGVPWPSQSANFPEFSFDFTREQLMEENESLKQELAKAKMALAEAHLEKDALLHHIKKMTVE
UniProt A0MZ66, whole entry, looked up: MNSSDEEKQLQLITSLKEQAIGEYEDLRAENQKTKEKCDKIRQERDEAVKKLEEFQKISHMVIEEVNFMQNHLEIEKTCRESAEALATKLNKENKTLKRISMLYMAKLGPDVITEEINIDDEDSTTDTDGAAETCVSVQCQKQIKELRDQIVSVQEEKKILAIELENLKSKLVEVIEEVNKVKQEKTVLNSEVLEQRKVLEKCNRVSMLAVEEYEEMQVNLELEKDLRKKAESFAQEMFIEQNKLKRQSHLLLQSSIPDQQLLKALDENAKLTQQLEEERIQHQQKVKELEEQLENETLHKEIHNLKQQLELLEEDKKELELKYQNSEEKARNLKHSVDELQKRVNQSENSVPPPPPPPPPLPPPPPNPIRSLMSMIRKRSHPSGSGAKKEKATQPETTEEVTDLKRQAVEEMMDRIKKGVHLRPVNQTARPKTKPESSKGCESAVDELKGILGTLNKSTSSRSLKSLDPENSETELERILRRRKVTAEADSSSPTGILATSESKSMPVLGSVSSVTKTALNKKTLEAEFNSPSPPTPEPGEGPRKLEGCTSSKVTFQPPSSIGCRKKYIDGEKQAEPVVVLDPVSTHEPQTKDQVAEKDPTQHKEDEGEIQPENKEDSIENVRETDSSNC
UniProt A5PLL7: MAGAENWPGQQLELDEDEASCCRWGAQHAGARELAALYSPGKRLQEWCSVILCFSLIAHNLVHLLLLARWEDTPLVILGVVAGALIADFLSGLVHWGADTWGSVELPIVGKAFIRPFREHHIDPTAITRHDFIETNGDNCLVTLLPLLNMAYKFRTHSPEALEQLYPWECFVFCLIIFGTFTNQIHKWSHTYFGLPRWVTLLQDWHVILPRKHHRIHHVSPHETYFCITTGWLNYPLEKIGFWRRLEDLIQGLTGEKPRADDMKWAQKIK
UniProt A6NHR9: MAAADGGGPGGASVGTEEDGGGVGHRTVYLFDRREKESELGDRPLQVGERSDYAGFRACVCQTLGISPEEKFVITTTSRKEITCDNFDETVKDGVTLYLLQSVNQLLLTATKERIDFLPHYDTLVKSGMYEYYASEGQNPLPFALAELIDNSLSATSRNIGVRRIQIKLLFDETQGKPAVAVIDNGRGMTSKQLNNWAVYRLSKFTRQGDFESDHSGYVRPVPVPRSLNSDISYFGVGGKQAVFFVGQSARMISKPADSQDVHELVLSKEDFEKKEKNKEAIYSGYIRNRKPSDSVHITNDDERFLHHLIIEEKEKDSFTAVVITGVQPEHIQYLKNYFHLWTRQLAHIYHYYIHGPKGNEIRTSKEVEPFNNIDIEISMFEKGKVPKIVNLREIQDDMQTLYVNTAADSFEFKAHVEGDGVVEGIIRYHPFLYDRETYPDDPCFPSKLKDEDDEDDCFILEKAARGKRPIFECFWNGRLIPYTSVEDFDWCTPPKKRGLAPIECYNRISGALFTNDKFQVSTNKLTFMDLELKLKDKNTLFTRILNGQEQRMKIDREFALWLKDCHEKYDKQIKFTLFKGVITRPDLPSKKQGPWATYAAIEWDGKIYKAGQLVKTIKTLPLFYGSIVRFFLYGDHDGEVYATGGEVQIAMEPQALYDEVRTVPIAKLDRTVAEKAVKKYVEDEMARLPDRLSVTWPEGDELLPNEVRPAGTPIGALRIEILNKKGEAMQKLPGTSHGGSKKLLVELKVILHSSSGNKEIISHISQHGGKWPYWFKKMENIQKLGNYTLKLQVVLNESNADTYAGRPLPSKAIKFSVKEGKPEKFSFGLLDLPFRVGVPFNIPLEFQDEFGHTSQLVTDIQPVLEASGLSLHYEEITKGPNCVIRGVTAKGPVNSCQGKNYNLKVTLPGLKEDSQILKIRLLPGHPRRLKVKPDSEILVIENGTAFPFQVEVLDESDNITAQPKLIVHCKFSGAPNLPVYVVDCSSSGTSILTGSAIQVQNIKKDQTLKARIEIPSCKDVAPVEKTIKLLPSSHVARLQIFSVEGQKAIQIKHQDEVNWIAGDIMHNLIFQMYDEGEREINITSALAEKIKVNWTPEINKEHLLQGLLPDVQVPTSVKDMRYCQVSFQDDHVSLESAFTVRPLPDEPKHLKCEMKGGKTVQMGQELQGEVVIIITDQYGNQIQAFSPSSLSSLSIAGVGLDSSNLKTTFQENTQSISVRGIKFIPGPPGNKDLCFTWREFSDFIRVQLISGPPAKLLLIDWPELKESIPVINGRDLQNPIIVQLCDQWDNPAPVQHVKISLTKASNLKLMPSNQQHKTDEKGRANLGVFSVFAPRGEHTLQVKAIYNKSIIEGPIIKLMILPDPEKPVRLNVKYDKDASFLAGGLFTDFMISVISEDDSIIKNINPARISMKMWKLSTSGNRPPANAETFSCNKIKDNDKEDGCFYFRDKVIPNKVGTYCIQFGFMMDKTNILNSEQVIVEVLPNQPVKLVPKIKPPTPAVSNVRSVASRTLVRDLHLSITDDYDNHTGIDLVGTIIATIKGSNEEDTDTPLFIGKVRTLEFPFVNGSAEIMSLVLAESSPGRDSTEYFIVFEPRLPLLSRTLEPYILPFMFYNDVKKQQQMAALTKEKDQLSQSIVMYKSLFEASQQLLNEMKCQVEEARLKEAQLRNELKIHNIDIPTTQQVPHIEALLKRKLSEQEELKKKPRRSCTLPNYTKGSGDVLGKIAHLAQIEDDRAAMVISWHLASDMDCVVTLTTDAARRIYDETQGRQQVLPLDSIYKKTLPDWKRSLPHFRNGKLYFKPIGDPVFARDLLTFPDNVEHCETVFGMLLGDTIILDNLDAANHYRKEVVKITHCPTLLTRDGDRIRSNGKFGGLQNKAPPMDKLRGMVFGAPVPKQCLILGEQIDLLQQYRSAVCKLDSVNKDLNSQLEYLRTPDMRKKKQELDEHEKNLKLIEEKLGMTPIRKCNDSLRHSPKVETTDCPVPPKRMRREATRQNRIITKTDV
UniProt A6NHG4: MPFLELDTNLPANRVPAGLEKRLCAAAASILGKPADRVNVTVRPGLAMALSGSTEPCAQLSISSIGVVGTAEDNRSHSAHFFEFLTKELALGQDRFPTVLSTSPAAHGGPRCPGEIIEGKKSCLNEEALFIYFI

Compound: COC(=O)/C=C/c1ccccc1 [methyl cinnamate]
Experiment: log2 ratio of iodoacetamide-alkyne labeling of the cysteine site, DMSO over compound (competition); higher = stronger covalent engagement of the cysteine by the compound, active = 1 or more
Conditions: 500 µM; treatment time 1 h; system: HEK293T cell lysate
Method in brief: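 HEK293T lysate (2 mg/mL) was treated with DMSO or electrophile (500 µM, 1 h, ambient temperature), then iodoacetamide alkyne (1 h), clicked to sCIP-TMT reagents, pooled, trypsin-digested overnight at 37 °C, streptavidin-enriched and acid-eluted. Peptides were run on Orbitrap Eclipse LC-MS/MS with FAIMS and quantified in FragPipe. The log2 competition ratio per cysteine is mean control-channel over mean compound-channel reporter intensity. Duplicate channels and three replicates were used, and cysteines quantified in only one replicate were excluded.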

Row | Target | log2 ratio of iodoacetamide-alkyne labeling
1 | UniProt A2RUB1_C664 | inactive: 0.307
2 | UHRF1BP1L C633 (UniProt A0JNW5) | inactive: -0.64
3 | UniProt A0MZ66_C442 | inactive: 0.229
4 | TMEM189 C22 (UniProt A5PLL7) | inactive: 0.285
5 | SMCHD1 C1899 (UniProt A6NHR9) | inactive: 0.013
6 | TMEM189 C21 (UniProt A5PLL7) | inactive: 0.285
7 | SMCHD1 C1823 (UniProt A6NHR9) | inactive: -0.188
8 | A0AVT1_C721 | inactive: -0.0149
9 | A0AVT1_C347 | inactive: 0.414
10 | A0AV96_C349 | inactive: -0.126
11 | A0AVT1_C625 | inactive: 0.21
12 | SMCHD1 C84 (UniProt A6NHR9) | inactive: -0.283
13 | SMCHD1 C492 (UniProt A6NHR9) | inactive: 0.144
14 | DDTL C24 (UniProt A6NHG4) | inactive: 0.326
15 | UHRF1BP1L C647 (UniProt A0JNW5) | inactive: 0.123

Quoted at random: two entries already listed
Row | Target | log2 ratio of iodoacetamide-alkyne labeling
1 | UniProt A2RUB1_C664 | inactive: 0.307
11 | A0AVT1_C625 | inactive: 0.21
